These are yes or no findings as the source states them, for the method shown. For some assays here: In cells and extracts the contact can be indirect. Some binding calls cover weakened binding; strength is not graded here.
What was measured:
[1] = biological target: cyclin-dependent kinase 12 (human (endogenous in SNU-1)) (UniProt Q9NYV4); test: co-IP; SNU-1 cell lysates incubated with normal IgG, anti-CDK12 or anti-PAK2 antibody, 4 °C overnight; protein A/G agarose beads 2 h; PAK2 or CDK12 detected by western blot
recombinant CDK12 = recombinant CDK12 (UniProt Q9NYV4); test: co-IP; recombinant CDK12 and PAK2 proteins immunoprecipitated with IgG or anti-CDK12/anti-PAK2 antibodies; western blot (in vitro); both purified

By UniProt entry, the sequences of proteins in these tests, tags left out.
UniProt Q9NYV4: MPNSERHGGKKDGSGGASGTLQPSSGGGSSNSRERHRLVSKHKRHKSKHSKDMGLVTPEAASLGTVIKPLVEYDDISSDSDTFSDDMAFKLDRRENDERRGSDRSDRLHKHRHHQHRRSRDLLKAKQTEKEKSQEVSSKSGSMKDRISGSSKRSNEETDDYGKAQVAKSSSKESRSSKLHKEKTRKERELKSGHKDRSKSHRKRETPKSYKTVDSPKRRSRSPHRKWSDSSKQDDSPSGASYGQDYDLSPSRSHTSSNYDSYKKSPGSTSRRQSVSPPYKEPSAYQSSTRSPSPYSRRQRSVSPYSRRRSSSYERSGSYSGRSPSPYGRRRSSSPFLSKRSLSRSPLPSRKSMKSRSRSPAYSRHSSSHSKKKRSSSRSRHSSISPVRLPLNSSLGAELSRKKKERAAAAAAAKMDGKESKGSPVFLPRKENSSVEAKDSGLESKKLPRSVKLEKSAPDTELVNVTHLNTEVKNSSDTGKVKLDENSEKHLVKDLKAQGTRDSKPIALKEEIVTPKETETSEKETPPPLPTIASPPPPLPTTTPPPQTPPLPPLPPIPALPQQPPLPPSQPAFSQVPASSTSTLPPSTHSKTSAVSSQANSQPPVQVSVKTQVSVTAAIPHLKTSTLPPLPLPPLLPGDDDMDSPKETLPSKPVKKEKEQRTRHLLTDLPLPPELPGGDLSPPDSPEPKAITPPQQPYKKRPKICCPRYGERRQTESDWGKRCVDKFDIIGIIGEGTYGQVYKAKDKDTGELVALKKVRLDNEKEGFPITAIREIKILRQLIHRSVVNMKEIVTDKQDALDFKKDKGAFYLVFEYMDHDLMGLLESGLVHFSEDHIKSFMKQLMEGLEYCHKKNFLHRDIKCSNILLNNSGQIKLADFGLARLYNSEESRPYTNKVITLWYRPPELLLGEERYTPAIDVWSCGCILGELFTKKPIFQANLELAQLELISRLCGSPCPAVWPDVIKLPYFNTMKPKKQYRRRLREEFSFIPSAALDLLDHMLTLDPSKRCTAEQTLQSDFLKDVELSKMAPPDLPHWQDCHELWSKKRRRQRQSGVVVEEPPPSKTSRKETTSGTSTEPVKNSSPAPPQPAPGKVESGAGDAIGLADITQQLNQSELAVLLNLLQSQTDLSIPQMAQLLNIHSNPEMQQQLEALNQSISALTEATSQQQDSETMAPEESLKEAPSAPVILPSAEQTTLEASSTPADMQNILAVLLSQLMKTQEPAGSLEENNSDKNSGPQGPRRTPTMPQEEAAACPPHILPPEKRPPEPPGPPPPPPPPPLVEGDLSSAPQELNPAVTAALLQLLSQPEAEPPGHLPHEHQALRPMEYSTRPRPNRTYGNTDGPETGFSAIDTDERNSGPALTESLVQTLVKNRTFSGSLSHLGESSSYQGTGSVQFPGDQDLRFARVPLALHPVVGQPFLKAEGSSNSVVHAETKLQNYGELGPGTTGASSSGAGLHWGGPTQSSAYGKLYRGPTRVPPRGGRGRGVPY
UniProt Q13177: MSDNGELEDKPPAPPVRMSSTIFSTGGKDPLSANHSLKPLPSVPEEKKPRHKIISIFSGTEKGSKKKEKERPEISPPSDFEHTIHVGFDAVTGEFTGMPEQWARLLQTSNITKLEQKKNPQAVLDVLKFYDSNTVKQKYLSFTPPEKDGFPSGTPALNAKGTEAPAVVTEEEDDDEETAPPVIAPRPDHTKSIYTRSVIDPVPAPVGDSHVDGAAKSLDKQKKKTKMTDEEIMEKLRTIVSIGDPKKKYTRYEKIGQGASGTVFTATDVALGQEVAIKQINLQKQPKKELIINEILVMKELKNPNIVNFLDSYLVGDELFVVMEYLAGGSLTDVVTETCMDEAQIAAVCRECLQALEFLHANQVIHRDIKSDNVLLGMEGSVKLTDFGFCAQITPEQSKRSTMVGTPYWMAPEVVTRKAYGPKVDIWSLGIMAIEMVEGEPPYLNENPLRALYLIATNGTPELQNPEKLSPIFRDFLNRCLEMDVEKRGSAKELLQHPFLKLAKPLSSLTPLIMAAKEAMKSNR

Substance | binding [1] | binding (recombinant CDK12)
p21 activated kinase 2 (from UniProt Q13177 1-524) | binds | –
recombinant PAK2 (from UniProt Q13177 1-524) (enzyme) | – | binds

Source: PMC7255043
